Where a name gives a salt, the structure may show the parent alone. Some entries share one result that the patent states for a list of compounds.
Target: T1, RIPK2 (full length FLAG His tagged RIPK2; RIP2 kinase) (Homo sapiens, UniProt O43353)
T1 construct: Full length FLAG His tagged RIPK2 was purified from a Baculovirus expression system; FLAG (N); 6His (N); made in house; host or cells: Spodoptera frugiperda (Sf9) insect cells, baculovirus
Assay: Fluorescent polarization based binding assay, competition with a fluorescently labeled ATP competitive ligand at the ATP binding pocket of RIPK2
Conditions: pIC50s averaged, minimum of 2 experiments; fluorescent ligand 5 nM
Description: A fluorescent polarization based binding assay was developed to quantitate interaction of novel test compounds at the ATP binding pocket of RIPK2, by competition with a fluorescently labeled ATP competitive ligand. Full length FLAG His tagged RIPK2 was purified from a Baculovirus expression system and was used at a final assay concentration of twice the KDapparent. A fluorescent labeled ligand (5-({[2-({[3-({4-[(5-hydroxy-2-methylphenyl)amino]-2-pyrimidinyl}amino)phenyl]carbonyl}amino)ethyl]amino}carbonyl)-2-(6-hydroxy-3-oxo-3H-xanthen-9-yl)benzoic acid, prepared as described below) was used at a final assay concentration of 5 nM. Both the enzyme and ligand were prepared in solutions in 50 mM HEPES pH7.5, 150 mM NaCl, 10 mM MgCl2, 1 mM DTT, and 1 mM CHAPS. Test compounds were prepared in 100% DMSO and […] was dispensed to individual wells of a multiwell plate. Next, 5 ul RIPK2 was added to the test compounds at twice the final assay concentration, and incubated at room temperature for 10 minutes. Following the incubation, 5 ul of the fluorescent labeled ligand solution, was added to each reaction, at twice the final assay concentration, and incubated at room temperature for at least 10 minutes. Finally, samples were read on an instrument capable of measuring fluorescent polarization. Test compound inhibition was expressed as percent (%) inhibition of internal assay controls.
For concentration response experiments, normalized data were fit and pIC50s determined using conventional techniques. For example, the following four parameter logistic equation may be used: y=A+((B−C))/(1+(10^x)/(10^C)^D), where: y is the % activity (% inhibition) at a specified compound concentration; A is the minimum % activity; B is the maximum % activity; C=log10(IC50); D=Hill slope; x=log10 (compound concentration [M]); and plC50=(—C).
The pIC50s are averaged to determine a mean value, for a minimum of 2 experiments. […] For instance, the compounds of Example 2 and Example 39 each inhibited RIP2 kinase in the above method with a mean plC50 of 5.
Full-length human RIPK2 (receptor-interacting serine-threonine kinase 2) cDNA was purchased from Invitrogen (Carlsbad, Calif., USA, Clone ID: IOH6368, RIPK2-pENTR 221). Gateway® LR cloning was used to site-specifically recombine RIPK2 downstream to an N-terminal FLAG-6His contained within the destination vector pDEST8-FLAG-His6 according to the protocol described by Invitrogen. Transfection into Spodoptera frugiperda(Sf9) insect cells was performed using Cellfectin® (Invitrogen), according to the manufacturer's protocol.

Protein sequences, listed by entry. Tags and fused reporters are not part of them.
UniProt O43353, whole entry: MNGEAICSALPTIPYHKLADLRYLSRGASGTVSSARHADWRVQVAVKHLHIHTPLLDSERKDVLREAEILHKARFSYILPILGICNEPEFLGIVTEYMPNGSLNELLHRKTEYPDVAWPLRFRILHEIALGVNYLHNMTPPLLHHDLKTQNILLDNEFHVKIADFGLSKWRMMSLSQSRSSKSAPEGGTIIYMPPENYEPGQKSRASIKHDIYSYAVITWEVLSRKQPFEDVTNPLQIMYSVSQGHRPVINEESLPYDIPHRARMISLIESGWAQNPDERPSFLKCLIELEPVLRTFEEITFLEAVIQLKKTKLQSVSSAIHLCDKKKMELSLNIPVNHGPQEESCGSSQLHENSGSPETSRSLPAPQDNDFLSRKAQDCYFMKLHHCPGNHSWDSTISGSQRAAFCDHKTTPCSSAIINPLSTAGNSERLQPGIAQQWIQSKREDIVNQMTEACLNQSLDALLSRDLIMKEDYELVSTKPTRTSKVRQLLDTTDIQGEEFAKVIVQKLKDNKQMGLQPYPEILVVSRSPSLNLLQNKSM

Compound | mean pIC50
COCCn1c(-c2c[nH]c(-c3ccc4scnc4c3)n2)nc2ccc(C)cc21.Cl [Example 27, 5-(4-{6-methyl-1-[2-(methyloxy)ethyl]-1H-benzimidazol-2-yl}-1H-imidazol-2-yl)-1,3-benzothiazole] | greater than 4.0
COCCn1c(-c2c[nH]c(-c3ccc(Cl)c(OC)c3)n2)nc2ccc(C)cc21.Cl [Example 28, 2-{2-[4-chloro-3-(methyloxy)phenyl]-1H-imidazol-4-yl}-6-methyl-1-[2-(methyloxy)ethyl]-1H-benzimidazole] | greater than 4.0
COCCn1c(-c2c[nH]c(-c3ccc(Cl)c(O)c3)n2)nc2ccc(C)cc21 [Example 29, 2-chloro-5-(4-{6-methyl-1-[2-(methyloxy)ethyl]-1H-benzimidazol-2-yl}-1H-imidazol-2-yl)phenol] | greater than 4.0
COCCn1c(-c2cnc(-c3ccc(Cl)cc3)[nH]2)nc2ccccc21 [Example 30, 2-[2-(4-chlorophenyl)-1H-imidazol-4-yl]-1-[2-(methyloxy)ethyl]-1H-benzimidazole] | greater than 4.0
COCCn1c(-c2cnc(-c3ccc(Cl)cc3)[nH]2)nc2cc(C(F)(F)F)ccc21 [Example 35, 2-[2-(4-chlorophenyl)-1H-imidazol-4-yl]-1-[2-(methyloxy)ethyl]-5-(trifluoromethyl)-1H-benzimidazole] | greater than 4.0
COCCn1c(-c2cnc(-c3ccc(Cl)cc3)[nH]2)nc2ccc(OC)cc21 [Example 36, 2-[2-(4-chlorophenyl)-1H-imidazol-4-yl]-6-(methyloxy)-1-[2-(methyloxy)ethyl]-1H-benzimidazole] | greater than 4.0
CCCn1c(-c2c[nH]c(-c3ccc(Cl)cc3)n2)nc2cc(C(=O)NC)ccc21 [Example 44, 2-[2-(4-chlorophenyl)-1H-imidazol-4-yl]-N-methyl-1-propyl-1H-benzimidazole-5-carboxamide] | greater than 4.0
CCOCCn1c(-c2c[nH]c(-c3ccc(Cl)cc3)n2)nc2cc(C(=O)NC)ccc21 [Example 45, 2-[2-(4-chlorophenyl)-1H-imidazol-4-yl]-1-[2-(ethyloxy)ethyl]-N-methyl-1H-benzimidazole-5-carboxamide] | greater than 4.0
COCCn1c(-c2c[nH]c(-c3ccc(Cl)cc3)n2)nc2cccc(C)c21 [Example 46, 2-[2-(4-chlorophenyl)-1H-imidazol-4-yl]-7-methyl-1-[2-(methyloxy)ethyl]-1H-benzimidazole] | greater than 4.0
COCCn1c(-c2c[nH]c(-c3ccc(Cl)cc3)n2)nc2cc(C(=O)Nc3ccncc3)ccc21 [Example 47, 2-[2-(4-chlorophenyl)-1H-imidazol-4-yl]-1-[2-(methyloxy)ethyl]-N-4-pyridinyl-1H-benzimidazole-5-carboxamide] | greater than 4.0
COCCn1c(-c2c[nH]c(-c3ccc(Cl)cc3)n2)nc2ccc(C(=O)Nc3ccccn3)cc21 [Example 48, 2-[2-(4-chlorophenyl)-1H-imidazol-4-yl]-1-[2-(methyloxy)ethyl]-N-2-pyridinyl-1H-benzimidazole-6-carboxamide] | greater than 4.0
COCCn1c(-c2c[nH]c(-c3ccc(Cl)cc3)n2)nc2ccc(C(=O)Nc3cccnc3)cc21 [Example 49, 2-[2-(4-chlorophenyl)-1H-imidazol-4-yl]-1-[2-(methyloxy)ethyl]-N-3-pyridinyl-1H-benzimidazole-6-carboxamide] | greater than 4.0
COCCn1c(-c2c[nH]c(-c3ccc(Cl)cc3)n2)nc2ccc(C(=O)Nc3ccncc3)cc21 [Example 50, 2-[2-(4-chlorophenyl)-1H-imidazol-4-yl]-1-[2-(methyloxy)ethyl]-N-4-pyridinyl-1H-benzimidazole-6-carboxamide] | greater than 4.0
COCCn1c(-c2c[nH]c(-c3ccc(Cl)cc3)n2)nc2cc(C(=O)Nc3ccccn3)ccc21 [Example 51, 2-[2-(4-chlorophenyl)-1H-imidazol-4-yl]-1-[2-(methyloxy)ethyl]-N-2-pyridinyl-1H-benzimidazole-5-carboxamide] | greater than 4.0
COCCn1c(-c2c[nH]c(-c3ccc(Cl)cc3)n2)nc2cnccc21 [Example 52, 2-[2-(4-chlorophenyl)-1H-imidazol-4-yl]-1-[2-(methyloxy)ethyl]-1H-imidazo[4,5-c]pyridine] | greater than 4.0
COCCn1c(-c2c[nH]c(-c3ccc4scnc4c3)n2)nc2ccc(C#N)cc21 [Example 53, 2-[2-(1,3-benzothiazol-5-yl)-1H-imidazol-4-yl]-1-[2-(methyloxy)ethyl]-1H-benzimidazole-6-carbonitrile hydrochloride] | greater than 4.0
COCCn1c(-c2c[nH]c(-c3ccc4scnc4c3)n2)nc2cc(S(C)(=O)=O)c(C)cc21 [Example 54, 5-{4-[6-methyl-1-[2-(methyloxy)ethyl]-5-(methylsulfonyl)-1H-benzimidazol-2-yl]-1H-imidazol-2-yl}-1,3-benzothiazole] | greater than 4.0
COCCn1c(-c2c[nH]c(-c3ccc4scnc4c3)n2)nc2ccc(F)cc21 [Example 55, 5-(4-{6-fluoro-1-[2-(methyloxy)ethyl]-1H-benzimidazol-2-yl}-1H-imidazol-2-yl)-1,3-benzothiazole] | greater than 4.0

The next lines start with the values.

mean pIC50 | Compound
greater than 4.0 | COCCn1c(-c2cnc(-c3ccc(Cl)cc3)[nH]2)nc2cc(C(=O)OC)ccc21 [Example 31, methyl 2-[2-(4-chlorophenyl)-1H-imidazol-4-yl]-1-[2-(methyloxy)ethyl]-1H-benzimidazole-5-carboxylate]
greater than 4.0 | CNC(=O)c1ccc2c(c1)nc(-c1cnc(-c3ccc(Cl)cc3)[nH]1)n2CCOC [Example 33, 2-[2-(4-chlorophenyl)-1H-imidazol-4-yl]-N-methyl-1-[2-(methyloxy)ethyl]-1H-benzimidazole-5-carboxamide]
greater than 4.0 | COCCn1c(-c2cnc(-c3ccc(Cl)cc3)[nH]2)nc2cc(C(=O)N(C)C)ccc21 [Example 34, 2-[2-(4-chlorophenyl)-1H-imidazol-4-yl]-N,N-dimethyl-1-[2-(methyloxy)ethyl]-1H-benzimidazole-5-carboxamide]
greater than 4.0 | COCCn1c(-c2cnc(-c3ccc(Cl)cc3)[nH]2)nc2cc(C)ccc21 [Example 37, 2-[2-(4-chlorophenyl)-1H-imidazol-4-yl]-5-methyl-1-[2-(methyloxy)ethyl]-1H-benzimidazole]
greater than 4.0 | COCCn1c(-c2cnc(-c3ccc(Cl)cc3)[nH]2)nc2ccc(C)cc21 [Example 38, 2-[2-(4-chlorophenyl)-1H-imidazol-4-yl]-6-methyl-1-[2-(methyloxy)ethyl]-1H-benzimidazole]
greater than 4.0 | COCCNC(=O)c1ccc2c(c1)nc(-c1cnc(-c3ccccc3)[nH]1)n2CCOC [Example 39, N,1-bis[2-(methyloxy)ethyl]-2-(2-phenyl-1H-imidazol-4-yl)-1H-benzimidazole-5-carboxamide]
greater than 4.0 | COCCNC(=O)c1ccc2c(c1)nc(-c1cnc(-c3ccc(Cl)cc3)[nH]1)n2CCO [Example 40, 2-[2-(4-chlorophenyl)-1H-imidazol-4-yl]-1-(2-hydroxyethyl)-N-[2-(methyloxy)ethyl]-1H-benzimidazole-5-carboxamide]
greater than 4.0 | CNC(=O)c1ccc2nc(-c3cnc(-c4ccc(Cl)cc4)[nH]3)n(CCOC)c2c1 [Example 41, 2-[2-(4-chlorophenyl)-1H-imidazol-4-yl]N-methyl-1-[2-(methyloxy)ethyl]-1H-benzimidazole-6-carboxamide]
greater than 4.0 | COCCn1c(-c2cnc(-c3ccc(Cl)cc3)[nH]2)nc2ccc(C(=O)O)cc21 [Example 42, 2-[2-(4-chlorophenyl)-1H-imidazol-4-yl]-1-[2-(methyloxy)ethyl]-1H-benzimidazole-6-carboxylic acid]
greater than 4.0 | CNC(=O)c1ccc2c(c1)nc(-c1cnc(-c3cccc(Cl)c3)[nH]1)n2CCOC [Example 43, 2-[2-(3-chlorophenyl)-1H-imidazol-4-yl]N-methyl-1-[2-(methyloxy)ethyl]-1H-benzimidazole-5-carboxamide]
